Reference: PubChem BioAssay AID1671195 (Yale University, 2021)

- Test: 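Genes whose knockdown alters LDL uptake in liver cancer cells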 (primary screen)
- Cell system: human Huh7 hepatoma cells
- Reagent: siRNA pool against human genes, 18 nM
- Timing: about 2 to 2.5 days of knockdown, then 8 h LDL uptake
- Challenge: DiI-labelled LDL at 30 µg/ml for 8 h, in lipoprotein-deficient serum medium
- Read-out: 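Fluorescent LDL signal imaged in cells, scaled to the plate median, robust z-score for each replicate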
- Direction: robust z-score: higher = more LDL uptake after knockdown
- Rule for the call: 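a gene counts as active if at least two replicate z-scores exceed ±2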
The deposit covers about 22,000 reagents; below is an unselected part. In the full data, about 1,510 (6.9%) got an active call. 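Active includes knockdowns raising or lowering LDL uptake; positive z-scores mean more uptake, negative mean less.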 The numbers tell different reagents against one gene apart. Reagent sequences are not shown.

| gene symbol | reagent | robust z-score, replicate 1 | robust z-score, replicate 2 | robust z-score, replicate 3 | activity call |
| --- | --- | --- | --- | --- | --- |
| SERBP1P1 (GeneID 389866) | 1 | 1.12 | 0.566 | -0.0267 | inactive |
| TAS2R20 (GeneID 259295) | 1 | -0.0906 | 0.0977 | 0.359 | inactive |
| ASIC1 (GeneID 41) | 1 | 0.76 | 0.441 | 0.597 | inactive |
| CCND3 (GeneID 896) | 1 | 0.369 | 0.257 | 0.139 | inactive |
| P2RX7 (GeneID 5027) | 1 | 0.738 | 0.469 | 0.512 | inactive |
| DOT1L (GeneID 84444) | 1 | -0.562 | -0.673 | -0.418 | inactive |
| CDK16 (GeneID 5127) | 1 | -1.28 | -1.01 | -1.61 | inactive |
| RPL15 (GeneID 6138) | 1 | -0.759 | -1.41 | -0.718 | inactive |
| PQBP1 (GeneID 10084) | 1 | -0.578 | -0.577 | -0.173 | inactive |
| IPO4 (GeneID 79711) | 1 | -1.04 | -1.31 | -1.4 | inactive |
| CRISPLD2 (GeneID 83716) | 1 | 2.29 | 1.54 | 1.74 | inactive |
| WDR90 (GeneID 197335) | 1 | -1.13 | -1.71 | -1.28 | inactive |
| WDR90 (GeneID 197335) | 2 | -1.21 | -1.92 | -1.66 | inactive |
| LOC388752 (retired record) (GeneID 388752) | 1 | 1.71 | 0.837 | 1.21 | inactive |
| FABP5P1 (GeneID 387934) | 1 | -1.01 | -1.05 | -1.26 | inactive |
| KLK3 (GeneID 354) | 1 | 0.446 | 0.63 | 0.597 | inactive |
| AGFG1 (GeneID 3267) | 1 | 0.457 | 0.694 | 1.25 | inactive |
| MS4A7 (GeneID 58475) | 1 | 0.885 | 0.0285 | 0.38 | inactive |
| LOC342659 (retired record) (GeneID 342659) | 1 | -1.3 | -1.52 | -1.19 | inactive |
| HROB (GeneID 78995) | 1 | -1.11 | -0.962 | -0.98 | inactive |
| FLJ44674 (retired record) (GeneID 400535) | 1 | -1.32 | -1.28 | -1.01 | inactive |
| PMM2 (GeneID 5373) | 1 | -0.603 | -0.764 | -0.243 | inactive |
| TAS2R50 (GeneID 259296) | 1 | 0.182 | 0.618 | 0.646 | inactive |
| H4C15 (GeneID 554313) | 1 | -1.03 | -1.15 | -1.49 | inactive |
| STUM (GeneID 375057) | 1 | 0.747 | 0.456 | 0.412 | inactive |
| BEND2 (GeneID 139105) | 1 | -1.66 | -0.719 | -1.08 | inactive |
| PDRG1 (GeneID 81572) | 1 | 0.35 | 0.936 | 0.742 | inactive |
| SP7 (GeneID 121340) | 1 | -0.166 | -0.512 | -0.688 | inactive |
| MUSTN1 (GeneID 389125) | 1 | 2.82 | 3.22 | 3.08 | active |
| HSPA12B (GeneID 116835) | 1 | -0.665 | 1.58 | 0.811 | inactive |
| ERICH6 (GeneID 131831) | 1 | 0.301 | 0.131 | -1.21 | inactive |
| ZNF146 (GeneID 7705) | 1 | 0.00666 | 0.279 | 0.327 | inactive |
| CBLB (GeneID 868) | 1 | 0.928 | 0.11 | 0.35 | inactive |
| LOC390299 (retired record) (GeneID 390299) | 1 | 0.371 | 0.133 | 0.248 | inactive |
| TEKTL1 (GeneID 126402) | 1 | 0.877 | 1.87 | 1.43 | inactive |
| PSD (GeneID 5662) | 1 | -0.798 | -0.757 | -0.228 | inactive |
| S100A4 (GeneID 6275) | 1 | 1.56 | 2.06 | 1.53 | inactive |
| PIN1 (GeneID 5300) | 1 | 0.532 | -0.633 | 0.33 | inactive |
| KLRG1 (GeneID 10219) | 1 | -1.17 | -0.865 | -0.515 | inactive |
| HADHB (GeneID 3032) | 1 | -0.228 | -0.586 | 0.0769 | inactive |
| CNFN (GeneID 84518) | 1 | -0.417 | -0.171 | 0.35 | inactive |
| MAP3K14 (GeneID 9020) | 1 | -0.354 | 0.805 | 0.19 | inactive |
| RSBN1L (GeneID 222194) | 1 | -0.456 | 0.274 | 0.47 | inactive |
| FZD10 (GeneID 11211) | 1 | -1.19 | -1.91 | -0.664 | inactive |
| ARAP1 (GeneID 116985) | 1 | 0.406 | 0.154 | 0.548 | inactive |

Entries listed above marked active (1):
| gene symbol | reagent | robust z-score, replicate 1 | robust z-score, replicate 2 | robust z-score, replicate 3 | activity call |
| --- | --- | --- | --- | --- | --- |
| MUSTN1 (GeneID 389125) | 1 | 2.82 | 3.22 | 3.08 | active |

Additional reagents follow:
| gene symbol | reagent | robust z-score, replicate 1 | robust z-score, replicate 2 | robust z-score, replicate 3 | activity call |
| --- | --- | --- | --- | --- | --- |
| CHD2 (GeneID 1106) | 1 | -1.04 | -1.36 | -1.29 | inactive |
| TUBA8 (GeneID 51807) | 1 | -0.337 | -0.863 | -0.547 | inactive |
| LHFPL1 (GeneID 340596) | 1 | 1.61 | 1.49 | 1.12 | inactive |
| CHP2 (GeneID 63928) | 1 | -0.729 | -1.42 | 0.00197 | inactive |
| SLC35C1 (GeneID 55343) | 1 | 0.268 | -1.83 | -0.904 | inactive |
| TRAK2 (GeneID 66008) | 1 | -0.327 | 0.519 | -0.607 | inactive |
| SSH3 (GeneID 54961) | 1 | 0.0356 | -0.588 | -0.227 | inactive |
| SLC2A7 (GeneID 155184) | 1 | 0.194 | 0.431 | 1.12 | inactive |
| EIF2S2 (GeneID 8894) | 1 | -1.22 | -1.06 | -1.1 | inactive |
| ZNF174 (GeneID 7727) | 1 | 2.53 | 2.47 | 2.63 | active |
| PLA2G12A (GeneID 81579) | 1 | -0.263 | -0.755 | -1.24 | inactive |
| LOC143034 (retired record) (GeneID 143034) | 1 | -1.72 | -1.97 | -1.51 | inactive |
| DKFZp564H213 (retired record) (GeneID 440432) | 1 | 0.293 | -0.271 | 0.0267 | inactive |
| LINC02120 (GeneID 340113) | 1 | -0.605 | -0.641 | -0.513 | inactive |
| VN1R10P (GeneID 387316) | 1 | 0.197 | -0.0857 | -0.166 | inactive |
| SPOCK1 (GeneID 6695) | 1 | -0.544 | 0.473 | -0.448 | inactive |
| ASF1A (GeneID 25842) | 1 | 2.57 | 3.07 | 1.62 | active |
| LOC400586 (retired record) (GeneID 400586) | 1 | -0.967 | -0.939 | -0.705 | inactive |
| H1-9P (GeneID 373861) | 1 | 0.691 | 0.752 | 0.443 | inactive |
| APOL1 (GeneID 8542) | 1 | 1.25 | -0.575 | -0.106 | inactive |
| CLEC14A (GeneID 161198) | 1 | 0.321 | 0.101 | 0.514 | inactive |
| KCNJ11 (GeneID 3767) | 1 | -0.381 | -1.05 | 0.222 | inactive |
| PCNP (GeneID 57092) | 1 | 0.687 | 1.82 | 1.48 | inactive |
